## Library screen at single concentrations

The values are deposited in ChEMBL (CHEMBL3988442, “University of Dundee, Small-Polar-MMV Screening Library” (2021)).

Values are the deposited “Percent Effect”, in %.
The record does not define 0% and 100%; most values in the screen are far below 50% and negative numbers occur (in some assays of this library far below -100).
The compounds are a random part of those screened.
Two or more numbers in one place are separate tests of the same structure; such repeats can differ widely.
A dash means the value is not listed here; it may have been measured.

Mtb cholesterol medium: 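Whole-cell growth test on Mycobacterium tuberculosis, read after 4 days in a medium based on cholesterol and the lipid DPPC; the read-out is not stated. Compounds at 50 µM. The record gives no direction; compounds that gave an IC50 in retests scored well above the rest, so higher reads as more growth inhibition. Of about 69,000 compounds tested this way, about 370 (0.54%) reached 50% or more in at least one test.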
Mtb glucose medium: 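Growth of Mycobacterium tuberculosis over 3 days (7H9 medium with glucose and tyloxapol); the read-out is not stated. Concentration: 50 µM. Direction is inferred from retests: higher values go with more growth inhibition. Size under these conditions: about 69,000 compounds, about 760 of them at 50% or above in at least one test.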

SMILES	Mtb cholesterol medium	Mtb glucose medium
COCCn1cc(NCc2c[nH]nc2-c2ccc(OC)cc2)cn1	-22.63 and -6.285	23.96
CC(C)(C)OC(=O)N1CCCN(c2nnc(C3CC3)s2)CC1	-2.517	2.127 and 10.52
O=C(CS(=O)(=O)CC1CCCCC1)NC1CCCCNC1=O (configuration not stated)	3.013	18.71
O=C(C1CCOC1)N1CCC2(CCN(Cc3nccs3)CC2)CC1 (configuration not stated)	-6.093	14.83
O=C(O)C(F)(F)F.[H][C@@]12COC[C@]1([H])[C@@H](OCC1CCOCC1)CN2Cc1ccsc1	3.974	-14.68
Cc1cnc(Nc2cccc(C3CCCN3C(=O)CO)n2)s1 (configuration not stated)	-1.595	-5.551
NC1CCCCN(Cc2ccccc2CS(=O)(=O)c2ccccc2)C1 (configuration not stated)	4.015	-0.2037
Cc1ccc(C(=O)Nc2cc(C(N)=O)ccc2N2CCCCC2)cc1F	-19.06	-12.3 and 6.192
Cc1cc2ncc(CN(C)C)c(C3CCN(C)CC3)n2n1	-7.428 and -17.76	-37.51
COc1c(C2CCCN2CC(=O)Nc2nccs2)c(C)nn1C (configuration not stated)	-14.82	0.9696
CC(c1ccccc1)N(C)C(=O)CNCCn1cccn1 (configuration not stated)	-4.675	-9.043
COc1ccccc1CCN1CCCC(CN(C)Cc2c[nH]c(C)n2)C1 (configuration not stated)	26.08	-1.514
Cc1ccccc1-c1cncc(C2CCN(C3CCOCC3)CC2)n1	-7.15	-7.412
CC(C)c1cncnc1-c1cc(F)cc2c1OC(CN)C2 (configuration not stated)	-19.07	0.4332
Cc1cc(C(=O)N2CCC(CCC(=O)NCCN(C)C)CC2)ccc1O	-21.4	-45.16
O=c1n(Cc2cccc(C(F)(F)F)c2)nc2ncccn12	-7.495	-5.995
c1ccc(OCc2noc(CN3CCC(N4CCSCC4)CC3)n2)cc1	15.7	-7.966
Cc1ccsc1CNC1CCCc2c1cnn2C.Cl (configuration not stated)	-7.262	-16.93
O=C(O)CCCC(=O)NCC1(O)CCN(c2ccnc3cccnc23)C1 (configuration not stated)	4.896 and -11.51	-12.59
Cc1ccc(CN(C)C(=O)NCC(C)(C)NS(C)(=O)=O)s1	16.3	2.295
CC(c1ccc(F)cc1)N1CCN(Cc2ccc(C#N)cc2)CC1 (configuration not stated)	-20.11	8.458
CN(C)CC1(O)CCCN(C(=O)CCn2cc(Cl)cn2)C1 (configuration not stated)	-36.37	-76.19
CCSCCNC(=O)C(c1cccc(C)c1)N(C)C (configuration not stated)	-27.76	-44.84
CNC(=O)C1CCN(Cc2nc(-c3ccc(SC)cc3)oc2C)C1 (configuration not stated)	-2.549	-9.94
CNC(=O)CCNC(=O)CCc1c(C)nc2cc(O)nn2c1C	-17.57	-0.5924
CCCC(O)CN1CCC(=O)N(C)Cc2cc(F)ccc21 (configuration not stated)	-28.64	-34.73
Cc1cc(C(=O)N(C)C2CCS(=O)(=O)C2)c2ccc(F)cc2n1 (configuration not stated)	-33.66	9.475 and 1.256
[H][C@]12CNC[C@@]1(C(=O)NCCCc1ccccc1)CN(S(C)(=O)=O)C2	16.4	0.7328
O=C(c1[nH]nc(C2CC2)c1Cl)N1CCN(C2CC2)C(=O)C1	16.7	32.62
COc1cccc(CC(C)NC(=O)NC(C)C)c1 (configuration not stated)	20.17	22.53
CCc1nccn1C1CCCN(C(=O)CCc2nccs2)C1 (configuration not stated)	7.877	2.165
Cc1cn([C@@H]2CC3(CCNCC3)OC[C@@]2(C)O)c(=O)[nH]c1=O	2.956 and 11.66	-15.79
COc1cccc(CCC(=O)N2CCN(Cc3noc(C)n3)CC2)c1	-17.84	-10.99 and 1.764
c1cc2cc[nH]c2c(CC2CN(Cc3cscn3)C2)n1	11.83	17.55
O=C(NCCc1cnccn1)c1ccc(S(=O)(=O)NC2CCC2)cc1	16.24	28.12
CCSCc1ccnc(NC(=O)C2CCCO2)c1 (configuration not stated)	3.064 and 5.833	-3.219
Cc1cc(C)cc(-c2cccc(CC3(C(=O)O)CCOCC3)c2)c1	-49.91	-
[H][C@]12CC[C@]([H])(CN(Cc3cscn3)C1)N(Cc1cc(C(C)(C)C)[nH]n1)C2	4.754	18.9
CN(CC(=O)NC(C)(C)C)Cc1nc(-c2ccccc2)c[nH]1	-59.15	-48.91
COc1c(CNC2CCCOc3ccccc32)c(C(C)C)nn1C (configuration not stated)	12.07	-21.13 and -1.938
CC(C)(CO)CNC(=O)c1ccnn1-c1ccc2ccccn12	20.65	8.785 and 0.8941
CN(Cc1ccccc1NCc1ncc[nH]1)C(=O)c1cccs1	14.23	3.464
COCCn1cc(NC(=O)NCC2CCN(c3ccccc3)C2)cn1 (configuration not stated)	-15.03	-24.1
CS(=O)(=O)N1CCn2c(C(=O)N3CCOCC3)cnc2C1	11.91	-1.155 and -13.62
Cc1nccn1-c1cccc(N2CCC(OCC3CCCCO3)CC2)n1 (configuration not stated)	3.022	9.565
COc1ccc2cc(C3CN(C(=O)N(C)C)CCO3)ccc2c1 (configuration not stated)	15.07	20.75
Cc1nc(COC[C@@H]2CCC[C@@]23CNCCO3)cs1.Cl.Cl	-23.82	-5.987
COCC1CC2(CCN(Cc3ccncc3)CC2)CN1C(C)C.O=C(O)C(F)(F)F.O=C(O)C(F)(F)F.O=C(O)C(F)(F)F (configuration not stated)	-12.64	-6.79
CCSCCC(=O)NCCn1nc2ccccn2c1=O	-3.739	14.79

Once more, the final 3:

{"smiles": "Cc1nc(COC[C@@H]2CCC[C@@]23CNCCO3)cs1.Cl.Cl", "Mtb cholesterol medium": -23.82, "Mtb glucose medium": -5.987}
{"smiles": "COCC1CC2(CCN(Cc3ccncc3)CC2)CN1C(C)C.O=C(O)C(F)(F)F.O=C(O)C(F)(F)F.O=C(O)C(F)(F)F", "stereo": "configuration not stated", "Mtb cholesterol medium": -12.64, "Mtb glucose medium": -6.79}
{"smiles": "CCSCCC(=O)NCCn1nc2ccccn2c1=O", "Mtb cholesterol medium": -3.739, "Mtb glucose medium": 14.79}